# Measurements reported in PubChem BioAssay AID1508600 (Functional Genomics Laboratory (NCATS/FGL), 2020).
# Among all 53,000 sequences or so, about 3,700 (7%) were called active.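 The calls were made as follows: active = gene knockdowns whose robust z-score for IL-1 alpha signal is at least 2 or at most -2, so actives lie on both sides; inactive = the rest.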 This is one part of the list.
# Test: Components of the Cytosolic LPS Sensing Pathway: Gene Identification via Genome-wide siRNA Screen;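 also: robust z of the log signal after scaling to non-targeting control siRNA wells of the plate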
# Conditions: RAW264.7 macrophages, IL-1a HTRF, actives lie on both sides, screened at 100 nM (by protocol), cells primed 5 h with Pam3CSK4 first
# In short: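 Knockdown: 100 nM siRNA, 48h, RAW264.7. Stimulation: Pam3CSK4 5 h, then LipidA via TransIT-TKO 24 h. Output: supernatant IL-1a HTRF, negative-control-normalized, log robust z-score; viability by CellTiter-Glo.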
row,Sequence,z-score
1,GGACUUGCGCGACAAGAUUTT against Krt19,inactive: 0.547
2,GGAAAUGGCACCAAUGUCATT against Slc25a24,inactive: -0.38
3,GGGAUAUUCAAAAUACUAGTT against Hells,inactive: 0.653
4,GCUGAGAAAUUGUCUACGCTT against Bex3,inactive: -0.115
5,GGUCCAAUUACUGAAGGUUTT against Spaca7,active: 2.09
6,GGUCCUCCAAAAAAAGCAATT against Prl3c1,inactive: 0.497
7,GCCGUCAUGUCUACAAUAATT against Clmp,inactive: 0.335
8,GGAGAACAUAAUGAAAUCUTT against Fam50a,inactive: -0.0744
9,GGUGGUACGCAGACUAAAUTT against Ulk1,active: 2.94
10,GGAGUGUUGGGAGCAGGAATT against Tnni1,active: 2.71
11,GCAGAGUGCUCGUAGAGUGTT against Heatr5a,inactive: 0.96
12,GCCUGUUUUAUUGUGUGACTT against Gna13,inactive: -0.0703
13,GGAAAUCACCAGAGCUGAUTT against Atp6v0a2,inactive: -1.14
14,GGUUGUGAUAUUAGGUCCGTT against Ak8,inactive: 1.4
15,GGAGAUCCCGUCACUAUCUTT against Lrrc61,inactive: -0.439
16,GCCUCUGAUGUAAACAGGATT against Nr2c2ap,inactive: 0.883
17,GGAGAUGGCGAAAACUCACTT against Rrbp1,inactive: -0.796
18,GGUGAGUUCAUGGUUUCCUTT against Txnl4b,inactive: -0.142
19,GGGAGGAGUCAUUCAUGAGTT against Cpsf4l,inactive: 0.425
20,GCUGAAGUGCAAGAACAAATT against Dmd,inactive: 1.91
21,GGUUCCCUUUUUCAUCUAATT against 4632433K11Rik,active: 3.08
22,GGGAAAAAUGGUCAGAUUATT against Colgalt2,inactive: -1.08

# Shown as tab-separated lines: entries from further up.
row	Sequence	z-score
20	GCUGAAGUGCAAGAACAAATT against Dmd	inactive: 1.91
21	GGUUCCCUUUUUCAUCUAATT against 4632433K11Rik	active: 3.08

# (continued)

row,Sequence,z-score
1,CCCAGACUCAGUUUUAACUTT against Spsb4,inactive: -1.88
2,GGAGAAGGAGAUGUCCAAUTT against Guca2b,inactive: 0.777
3,GCUCCCAAGUUUACCCAGCTT against Mybphl,inactive: 0.505
4,GGACUGAGAACCAAAGCUGTT against D630044L22Rik,active: -3.15
5,GGAGUCCACUAUGAGUACGTT against Thsd4,inactive: -0.143
6,GGCCAUCCAGUGCCUACAATT against Edc4,inactive: 0.697
7,GCCGUAGAUUUCCUUGAGUTT against Isca1,inactive: -0.0435
8,GGAGUUCGAAAGUAUCUAUTT against Rcvrn,inactive: -1.26
9,GGAAUCAGACACGUUCAUCTT against Prkar2a,inactive: 0.297
10,GGACUACUUCCCAAGAAUUTT against Gle1,inactive: 0.365
11,GCACUUUCGGUCAAGUGGATT against Pou2f3,inactive: -0.534
12,GGCGGUGACAGAGCUGAAUTT against Ywhah,inactive: 1.35
13,CGUGCAUUCUUAUCACAGCTT against Hsbp1,inactive: 0.987
14,GGAGGUUACAUAACAGGUGTT against Itsn2,inactive: 1.86
15,GGUGGGUCAAUGAUCCAGGTT against Fabp9,active: -2.11
16,GGAAGAAAGGAAAAUCAGATT against Nsmaf,inactive: 0.337
17,GCUGGAGUGUCAGUCAUAUTT against Reg4,active: 3.35
18,GCUGGCCAAACUUGACAGUTT against Wwc1,active: 2.05
19,GGGUCCUUUGAAAUUGUGGTT against Usp37,inactive: -0.0104
20,GGAAGCAUUCAAGAACAUCTT against Rab11b,inactive: 1.43
21,CCAGGGACUUAGGUUUAUCTT against Thap11,inactive: -0.625
22,GGUUAUCCAGAGAGAAGGATT against Asxl2,inactive: 0.399

row,Sequence,z-score
1,GGUUCCUCAAGAUCAUCAUTT against P2ry13,inactive: 0.051
2,GCUAGGAAGCAGUUAAUGATT against Usp49,inactive: 0.124
3,GGUCAUUUCUGGCAAGGUUTT against Pnpla3,inactive: -0.671
4,GGGCAAUUAUCUUUGUUAUTT against Olfr589,inactive: -0.0712
5,GGAAGACAUUACCAAGUCATT against Impa1,inactive: -0.577
6,CCGCACAGACCAUAGUAGATT against Pudp,inactive: 0.261
7,CCCUUACAUACCAAAGAAATT against Pkp4,inactive: 0.229
8,GGAUAAAAGAGAAGAGUGUTT against Glmn,inactive: -0.0461
9,CCCGAUAUAAUCAAGAAACTT against Pld3,inactive: -1.42
10,GCCUUUUAACUUAUUCUUGTT against Hey2,inactive: 0.0356
11,GGAAAAGGAAGAAGAGGCATT against Zfpm1,inactive: -1.63
12,GGUCCUAAACCACUUCAGCTT against Gtf2f1,inactive: 1.54
13,GCCUAGGAUAUGUAUUAACTT against Rhbdd2,inactive: -0.631
14,GGAUGACCCACUGGUGACUTT against Gng8,inactive: -0.97
15,GGCAGUGGCUUGGAUAAAUTT against Amdhd2,inactive: -0.609
16,CGAAUUAUCCAAACAAAUGTT against Shcbp1,inactive: 0.558
17,GGAACGUAUACCUAUACCCTT against Huwe1,inactive: -0.263
18,GGUUAUAACACCAGAUGGGTT against Iah1,inactive: 0.62
19,GGCUCAGAUGAUGAGCUUUTT against Hic2,inactive: 0.498
20,GCCUGUUUUGCCUAAAGUGTT against Hnrnpdl,inactive: 0.367
21,GGAGGUUCCUUCUUCAUCUTT against Cysrt1,inactive: 1.03
22,CGCAUAUCUAGAAUGGUUATT against 2810021J22Rik,inactive: 1.74

row,Sequence,z-score
1,GGACAAGUACUUCAUGAUCTT against Gosr2,inactive: -0.226
2,GGAUAAGACAGUUCCUAGCTT against Tap1,inactive: -0.921
3,GCCACCAUUAGGACAAGAUTT against 4933409G03Rik,inactive: -0.17
4,GCAGGUGCCAACAUUAUUGTT against Pnpla2,inactive: 0.0636
5,GGAACUGUUGAAGAAACUGTT against Nudt16l2,inactive: -0.411
6,GGCUGCCUAUUAUGAGAAGTT against Acy3,inactive: 1.92
7,CCAAAGGGAAGAGUUAUGCTT against Tmem126b,active: 2.34
8,GGUAGGCUGUGUUUGUCGGTT against Poldip3,inactive: 1.53
9,GGCACUUACUUCUGAGAAGTT against Pheta1,inactive: 0.875
10,GGAUAACGAACAUUUCAUCTT against Ntrk2,inactive: -0.236
11,GCUUUUUGUGGAGCAUUUUTT against Olfr1261,inactive: -0.215
12,GCAGCAUUAGUGACUUAAUTT against Mcph1,inactive: -0.941
13,GGACCUACAGCUGUGUGUUTT against Hjv,inactive: -0.485
14,GGCCCAUGUUUAUUUAUGGTT against Hsd3b6,inactive: -0.947
15,GGAAGAUGUUGAUAAUAGATT against Dmxl2,inactive: -0.0393
16,GCCUGAUAGUGGUGGACAGTT against Tmem45a2,active: 3.29
17,GGCCUCUCUACUCCUCAACTT against Ern2,inactive: 0.182
18,GGUGCAACAACUUAGUUUATT against Hspa2,inactive: 1.16
19,GGUCCGAUUUCAAGCCAUGTT against Ucp3,inactive: 1.91
20,GGUGCACUGUACAUGUAACTT against Fpr-rs3,inactive: 0.12
21,GGAACAAGAAAAUCUUGACTT against Ifna9,inactive: -0.189
22,CCAUGAAGACUCAUCUCUGTT against Cadm3,inactive: 0.602

# Some of the entries so far, with tabs:
row	Sequence	z-score
8	GGUAGGCUGUGUUUGUCGGTT against Poldip3	inactive: 1.53
15	GGAAGAUGUUGAUAAUAGATT against Dmxl2	inactive: -0.0393
17	GGCCUCUCUACUCCUCAACTT against Ern2	inactive: 0.182
18	GGUGCAACAACUUAGUUUATT against Hspa2	inactive: 1.16
22	CCAUGAAGACUCAUCUCUGTT against Cadm3	inactive: 0.602

# (listing goes on)

row,Sequence,z-score
1,GGACUUACUGAAAGAUAUGTT against Satb1,inactive: -0.893
2,GCAUUUCCGGGUUGUUACATT against Pelp1,inactive: 0.23
3,GCGACGAUUGUUAAAGCUGTT against Top1mt,inactive: -1.04
4,CGCGGCAAAUGUUUUAAAUTT against Scd3,inactive: 0.303
5,GUACGGCAACAUGACCCAGTT against Cd74,inactive: 0.385
6,GGAACAGGCAACAUGAUUGTT against Nlgn3,inactive: 0.376
7,GCUACAAGACUUUUACCAGTT against Tnfsf18,inactive: -0.0821
8,GCAGGUCUUUACCAGUAUUTT against Fcgr2b,inactive: 0.196
9,GACUUUCAUUCACAUAAUGTT against Vmn1r11,inactive: -0.307
10,GGAACAACUCCUGUUCCCATT against Obscn,inactive: 1.85
11,GCUCAUCCAUCGUAGUAAGTT against Fam170a,inactive: -0.482
12,CCUCAGGAUACAGACCCACTT against Frg2f1,inactive: -0.35
13,CGGCCUAUCUCUUGGUUUATT against Usp18,inactive: -1.86
14,CGAGGCUAUGAAAUCAGCCTT against Gfi1b,inactive: 0.771
15,GAUGAAGAAGUAGAAAUGGTT against Ston2,inactive: -0.423
16,CCCAUAAAACAGUCAACUATT against Ankra2,inactive: -1.68
17,GCCAGACUAAGCUUAAGACTT against Clca3a2,inactive: -1.09
18,GGAAAAUCUACUGUUUCCCTT against Flacc1,inactive: 0.244
19,GCCAUAGCUAUUGUCAUUCTT against Mmp16,inactive: 0.441
